Values quoted from earlier work as cited in patent publication US5264621A, “Anti-virus agent” (Sanyo-Kokusaku Pulp Co., Ltd., priority 1991, dated 1993).
At least one compound was matched to its structure with a doubt left.

Tested on: MOLT-4 cells infected with HTLV-IIIB
Conditions: background statement; cited from earlier work

## Cc1cn([C@H]2C[C@H](N=[N+]=[N-])[C@@H](CO)O2)c(=O)[nH]c1=O [AZT, azido thymidine]
  inhibitory activity for the fusion (formation of giant cells) of infectious cells with noninfectious cells: no inhibitory activity
